In data set [1] the test system is TaXPD E542C (disulphide trapping) E524C (Thermoplasma acidophilum). Nature of the data set: disulphide trapping, mass spectrometry. Conditions: covalent, 5'-alkanethiol (HO-(CH2)6-S-S-(CH2)6-) for disulphide link, trapping: 20 mM Tris-HCl pH 8.3-8.5, 50 mM NaCl, recombinant protein, protein details: N-term 6His removed by TEV.
Data set [2] shares this test system. Nature of the data set: disulphide trapping. The settings on record: covalent, 5'-alkanethiol (HO-(CH2)6-S-S-(CH2)6-) for disulphide link, trapping: 20 mM Tris-HCl pH 8.3-8.5, 50 mM NaCl, 4 C overnight, anaerobic, recombinant protein, protein details: N-term 6His removed by TEV.
[3] abbreviates: single-stranded DNA, letters put together from the description.

The values that follow come from article PMC4824113.

Construct, isoform or probe ends are uncertain for at least one entry. For some assays here: At least one verdict rests on a figure or table, not on a statement of the authors.

TACGACGGC [9mer]: the binding result in data set [1] (no AMPPNP/MgCl2, 4 C overnight …, single-stranded DNA, letters put together from the description) was “binds”.

As to TACGACGGCC [10mer], the binding result in data set [2] (setting [3]) is “binds”.

Turning to TACGACGGCCA [11mer], in data set [2] (setting [3]), the binding result is “binds”.

In the case of TACGACGGCCAGTGC [15mer], the binding result in data set [2] (single-stranded …) was “binds”.

Take “TACGAGAGAGAGAGAACCGAGCATTTGCTCG [crosslinking hairpin DNA]”: in data set [1] (4 C overnight, anaerobic, folded or branched DNA), the binding result is “binds”.
